# Measured values published in patent US11723911B2, “Treatment of demyelinating diseases” (M ET P PHARMA AG, priority 2018, dated 2023).
# For at least one compound, name, drawing or mass did not settle the structure.
# Tested on: LPC-induced demyelination model, castrated male mice
# Assay: Phosphorylated STAT3-expressing astrocytes in castrated male mice demyelinated by lysolecithin
# Format: in vivo, mouse
# Details: 7 days post-lesion; intranasal testosterone 0.2 mg/day or intranasal estradiol 0.05 mg/day
# Source text: […]. The latter is important for both remyelination and astrocyte reactivity, which is similar to activated microglia involved in local inflammation. […].
compound,measurement,value
C[C@]12CC[C@@H]3c4ccc(O)cc4CC[C@H]3[C@@H]1CC[C@@H]2O [estradiol],number of GFAP+ astrocytes expressing phosphorylated STAT3,increase the number of phosphorylated STAT3-expressing astrocytes to a similar extent as testosterone
